# PubChem BioAssay AID2685 (National Center for Advancing Translational Sciences (NCATS), 2010)
# The other results are listed elsewhere or left out. Further columns of the screen follow, without active or inactive calls. Compounds called inactive in the main read-out are mostly missing here. Potencies come from curve fits of mixed quality, noted in brackets.
# Assay: qHTS Assay for Lipid Storage Modulators in Drosophila S3 Cells;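 for cell number change: cells counted by Cell Tracker Red CMTPX staining in the red channel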
# Settings: BODIPY lipid droplet fluorescence, 18-24 h; for cell number change: measured here: cell count max response, cells fed with added oleic acid
# Outline: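 Drosophila S3 cells got compounds at several concentrations plus oleic acid (400 uM solution). Laser-scanning cytometry with 488 nm excitation read lipid droplets at 500-530 nm and cells at 575-640 nm. Percent activity was relative to 20 uM Triacsin C.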
# [1] = measured here: cell number channel AC50, cells fed with added oleic acid
# [2] = measured here: lipid fluorescence (Fed channel) AC50, cells fed with added oleic acid
smiles,measurement,setting,value
O=C(COc1ccc(S(=O)(=O)N2CCCC2)cc1)NCc1ccccn1,cell number change,,1.9%
Cc1ccc(NC(=O)c2ccc(C(=O)c3ccccc3)cc2)nc1,cell number change,,-51.6%
same,AC50,[1],"23.1 µM [falling, single point]"
same,AC50,[2],"23.1 µM [falling, single point]"
O=C(COC(=O)c1ccc(S(=O)(=O)N2CCCC2)cc1)Nc1ccc(F)cc1F,cell number change,,-36.3%
same,AC50,[1],"18.4 µM [falling, single point]"
CSc1ccc(Cn2nnc(C(=O)NCCc3ccc(Cl)cc3)c2N)cc1,AC50,[2],"1.84 µM [falling, partial curve]"
CCCN(CC(=O)Nc1cccc(S(N)(=O)=O)c1)CC(=O)Nc1ccc(F)c(F)c1F,cell number change,,6.78%
same,AC50,[1],"1.64 µM [rising, partial curve]"
same,AC50,[2],"29.1 µM [rising, single point]"
Nc1cc(Cl)ccc1C(=O)OCC(=O)N1CCCC1,cell number change,,12.8%
same,AC50,[2],"9.2 µM [falling, partial curve, poor fit]"
NC(=O)c1ccc(Nc2ccc3c(c2)CCC3)c([N+](=O)[O-])c1,cell number change,,-20.3%
Cc1sc2nc(SCC(=O)NCc3ccco3)n(C)c(=O)c2c1C,cell number change,,-36.9%
same,AC50,[1],"29.1 µM [falling, single point]"
same,AC50,[2],"29.1 µM [falling, single point]"
Cc1cccc(CNC(=O)C2CCC(=O)N(Cc3ccccc3F)C2)n1 (stereo not drawn),cell number change,,5.25%
COc1ccc(C(CNC(=O)Cn2[nH]c(=O)c3ccccc3c2=O)N2CCCC2)cc1 (stereo not drawn),cell number change,,4.23%
same,AC50,[2],"0.517 µM [rising, single point]"
CCc1ccc(NC(=O)c2cc(S(=O)(=O)N3CCCC3)c[nH]2)cc1,cell number change,,5.39%
same,AC50,[2],"6.51 µM [rising, single point]"
C=CCNC(=S)NCCO,cell number change,,-12.1%
same,AC50,[2],"29.1 µM [falling, single point]"
CCn1cc(Cl)c(C(=O)NNC(=O)CCn2nc(C)c([N+](=O)[O-])c2C)n1,cell number change,,-36.3%
same,AC50,[1],"0.731 µM [rising, partial curve, poor fit]"
same,AC50,[2],"0.731 µM [rising, partial curve, poor fit]"
CCCCc1ccc(NC(=S)NCCc2ccc(S(N)(=O)=O)cc2)cc1,cell number change,,-30.5%
same,AC50,[1],"0.731 µM [falling, full curve, poor fit]"
same,AC50,[2],"0.82 µM [falling, full curve]"
O=C(NCc1ccccc1)/C(=C/c1cccc([N+](=O)[O-])c1)NC(=O)c1ccco1,cell number change,,-8.57%
COCCCN1C(=O)c2ccc(C(=O)OCC(=O)NCc3cccc(OC)c3)cc2C1=O,cell number change,,-2.2%
O=C(N/N=C/c1cn(-c2ccccc2)nc1-c1cc2ccccc2o1)c1c[nH]c2ccccc12,cell number change,,-5.73%
Cc1ccc(-c2cc(C(F)F)nc(N3CCOCC3)n2)cc1,cell number change,,-30.1%
same,AC50,[2],"1.3 µM [falling, partial curve]"
COc1cc(NC(=O)c2noc3c2CCCC3)c(OC)cc1Cl,cell number change,,-17%
same,AC50,[2],"4.61 µM [falling, single point]"
O=C(Oc1cccc(-n2cnnn2)c1)C1CCCCC1,cell number change,,-3.76%
same,AC50,[2],"0.0184 µM [falling, full curve]"
CC(C)(C)c1ccccc1NC(=O)c1c(O)c2cccc3c2n(c1=O)CC3,cell number change,,9.74%
same,AC50,[1],"4.11 µM [falling, single point]"
same,AC50,[2],"6.51 µM [falling, partial curve, poor fit]"
O=C(C1CCN(c2ncnc3c2sc2cccc(F)c23)CC1)N1CCOCC1,AC50,[1],"0.461 µM [rising, full curve]"
same,AC50,[2],"0.461 µM [rising, full curve]"
CCOC(=O)NC(=O)/C(C#N)=N\Nc1cccc(Cl)c1,cell number change,,-27.5%
same,AC50,[2],"13 µM [falling, partial curve, poor fit]"
COC(=O)c1ccc(S(=O)(=O)N2CCN(C)CC2)n1C,cell number change,,-43.9%
same,AC50,[1],"4.61 µM [falling, full curve, poor fit]"
Cc1ccc(-c2nnc(SCC(=O)N/N=C/c3ccc(C)s3)n2-c2ccccc2)cc1,cell number change,,7.74%
same,AC50,[1],"0.731 µM [falling, full curve, poor fit]"
same,AC50,[2],"4.11 µM [falling, full curve]"
COc1ccc(CC(=O)N/N=C/c2c(C)n(C)c3ccccc23)cc1OC,cell number change,,25.6%
same,AC50,[1],"0.13 µM [rising, full curve, poor fit]"
same,AC50,[2],"0.291 µM [rising, partial curve]"
O=C(Nc1cccc(Cl)c1N1CCCCC1)c1ccc2c(c1)OCCO2,cell number change,,-21.4%
same,AC50,[2],"0.058 µM [falling, full curve, poor fit]"
O=[N+]([O-])c1ccccc1S(=O)(=O)Nc1ccc(-c2ccc3nncn3n2)cc1,cell number change,,55%
same,AC50,[1],"18.4 µM [rising, single point]"
CC(Oc1ccc2c(-c3ccccc3)cc(=O)oc2c1)C(=O)O (stereo not drawn),cell number change,,-38%
same,AC50,[1],"4.11 µM [falling, full curve]"
same,AC50,[2],"2.91 µM [falling, full curve]"
Cc1ccc(/C=N/NC(=O)c2nnn(-c3nonc3N)c2CSc2ccc(Cl)cc2)o1,cell number change,,-14.1%
same,AC50,[2],"29.1 µM [rising, single point]"
COc1cc(NC(=O)C2CCN(S(=O)(=O)c3cccs3)CC2)cc(OC)c1,cell number change,,-30.7%
same,AC50,[1],"32.6 µM [falling, single point]"
CC1(C(=O)NC2CCCCC2)CCC(=O)N1Cc1cccs1 (stereo not drawn),cell number change,,-57.1%
same,AC50,[2],"32.6 µM [falling, partial curve]"
O=C(Nc1cccc(F)c1)Nc1ccnn1C1CCN(C(=O)CCN2CCCO2)CC1,cell number change,,16.8%
same,AC50,[2],"6.51 µM [rising, partial curve, poor fit]"
COc1ccc(CNS(=O)(=O)c2ccc(-c3ccc(=O)[nH]n3)o2)cc1,cell number change,,-31.2%
same,AC50,[1],"29.1 µM [falling, single point]"
O=C(c1ccc(Br)o1)N1CCC(Cc2ccccc2)CC1,cell number change,,-19.3%
O=C(COc1ccccc1Cl)Nc1ccc2c(c1)OCO2,cell number change,,-17.1%
same,AC50,[1],"0.092 µM [rising, full curve, poor fit]"
same,AC50,[2],"35.5 µM [falling, single point]"
CCOC(=O)N1CCN(C(=O)c2ccc(CS(=O)Cc3ccc(C)cc3)o2)CC1 (stereo not drawn),AC50,[2],"11.6 µM [falling, partial curve, poor fit]"
Cc1ccccc1COn1nnc2ccc(S(=O)(=O)N3CCOCC3)cc21,cell number change,,139%
same,AC50,[1],"29.1 µM [rising, single point]"
Fc1ccc(CNC(=S)Nc2cccc(C(F)(F)F)c2)cc1,cell number change,,-64.7%
same,AC50,[1],"18.4 µM [falling, partial curve]"
same,AC50,[2],"23.1 µM [falling, partial curve, poor fit]"
O=C(COC(=O)c1ccncc1)NCc1ccccc1,cell number change,,-85.7%
same,AC50,[1],"4.61 µM [falling, full curve]"
same,AC50,[2],"0.082 µM [falling, full curve]"
Cc1ccc(NC(=O)c2c(Cl)nc3ccccn23)cc1,AC50,[2],"0.103 µM [rising, full curve]"
Cc1nc2ccc(N)cc2c(=O)n1Cc1ccc(Cl)cc1,cell number change,,18%
same,AC50,[2],"2.06 µM [rising, partial curve]"
COc1cccc2cc(C(=O)NCc3ccccc3Cl)c(=O)oc12,cell number change,,-5.91%
COC(=O)C1CCN(S(=O)(=O)c2ccc(Br)s2)CC1,cell number change,,14%
same,AC50,[2],"32.6 µM [rising, single point]"
Cc1cccc(NC(=S)N2CCC(N(C)CC3CCCO3)CC2)c1C (stereo not drawn),cell number change,,12.7%
same,AC50,[2],"32.6 µM [rising, single point]"
Cc1cc(C)cc(NC(=O)C/C(N)=N/O)c1,cell number change,,-24.1%
same,AC50,[2],"0.651 µM [rising, partial curve, poor fit]"
Cc1ccc(S(=O)(=O)N2CCN(CC(=O)Nc3ccc(N4CCOCC4)cc3)CC2)cc1C,cell number change,,9.66%
CN1C(=O)CSc2ccc(NC(=O)NCc3ccco3)cc21,cell number change,,63.7%
same,AC50,[1],"0.517 µM [rising, partial curve]"
same,AC50,[2],"1.16 µM [rising, full curve, poor fit]"
COC(=O)c1cc(OC)c(OC)cc1NC(=O)C1CCC(=O)N1S(=O)(=O)c1ccc(C)cc1 (stereo not drawn),AC50,[1],"0.259 µM [rising, partial curve]"
same,AC50,[2],"0.082 µM [rising, full curve, poor fit]"
CN(C)S(=O)(=O)c1ccc(C(=O)NCc2ccccn2)cc1,cell number change,,-19.5%
CCc1nc(NCc2ccccn2)c2oc3ccccc3c2n1,cell number change,,-30.4%
same,AC50,[1],"13 µM [falling, single point]"
same,AC50,[2],"29.1 µM [rising, single point]"
CCOc1ccc(OCCN2C(=O)NC3(CCCc4ccccc43)C2=O)cc1 (stereo not drawn),cell number change,,8.43%
same,AC50,[2],"2.06 µM [rising, partial curve]"
CCc1ccc(C(C)NC(=O)c2ccc3c(c2)OCO3)cc1 (stereo not drawn),cell number change,,13.9%
same,AC50,[2],"20.6 µM [rising, single point]"
COc1cccc(Nc2c3c(nc4c(-c5ccccc5)c(C)nn24)CCC3)c1,AC50,[1],"6.51 µM [rising, single point]"
same,AC50,[2],"0.164 µM [rising, full curve, poor fit]"
COC(=O)c1ccccc1NC(=O)CSc1nncn1C,cell number change,,19.3%
same,AC50,[1],"0.291 µM [rising, full curve, poor fit]"
Cc1ccc(S(=O)(=O)N2CCN(C(=O)COC(=O)C3CCC3)CC2)c(C)c1,cell number change,,2.56%
same,AC50,[2],"20.6 µM [falling, single point]"
CCCCNc1c(-c2ccc(SC(C)CC)c(OC)c2)nc2ccc(C)cn12 (stereo not drawn),cell number change,,-75.6%
same,AC50,[1],"20.6 µM [falling, partial curve]"
same,AC50,[2],"0.13 µM [falling, full curve, poor fit]"
CCC1CCCCN1C(=O)c1cc(-c2ccc(Cl)c(Cl)c2)on1 (stereo not drawn),cell number change,,-26.5%
same,AC50,[2],"23.1 µM [falling, single point]"

# 2 records drawn at random from the list so far, as already listed:
smiles,measurement,setting,value
Nc1cc(Cl)ccc1C(=O)OCC(=O)N1CCCC1,cell number change,,12.8%
CCc1ccc(C(C)NC(=O)c2ccc3c(c2)OCO3)cc1 (stereo not drawn),cell number change,,13.9%

# Given with tabs: part of the list above.
smiles	measurement	setting	value
O=C(COc1ccc(S(=O)(=O)N2CCCC2)cc1)NCc1ccccn1	cell number change		1.9%
CCn1cc(Cl)c(C(=O)NNC(=O)CCn2nc(C)c([N+](=O)[O-])c2C)n1	AC50	[2]	0.731 µM [rising, partial curve, poor fit]
COc1ccc(CC(=O)N/N=C/c2c(C)n(C)c3ccccc23)cc1OC	AC50	[1]	0.13 µM [rising, full curve, poor fit]
Cc1ccc(/C=N/NC(=O)c2nnn(-c3nonc3N)c2CSc2ccc(Cl)cc2)o1	cell number change		-14.1%
